Source: patent US4517180A, “Peptides, process for preparing the same and psychodepressant compositions containing the same” (Amano Pharmaceutical Co., Ltd, priority 1982, dated 1985)
Not every detail of the peptide structures is certain; ends, links or a residue may be inferred. Where a SMILES comes first, the peptide text is derived from it.

Legend:
Format in all cases: in vivo
Male ddy mice = assay: Effect on climbing behavior induced by apomorphine (Pharmacological Test 7); design: key: sum of 7 scores; each 0 = four legs on floor, 2 = ≥3 legs on rods; details: control 9.8 ± 0.7
Description: Effect on climbing behavior induced by apomorphine
Male ddy mice (weighing 20 to 30 g) were used, with 10 mice in each group. Each mouse was placed into a cylindrical cage, 12 cm in diameter and 14 cm in height, made up of vertical rods of 2 mm in diameter spaced apart at a distance of 10 mm in a circular arrangement. The mouse was allowed to stand therein for 2 hours. Physiological saline containing a specified amount of a test compound (and 1 mM of sodium hydrogencarbonate) was subcutaneously given to one group of mice in a volume of 1 ml/10 g. (The same dose of saline only was given to a control group). […] The test was carried out in soundproof compartments.
0: All the four legs are on the floor.
2: At least three legs are on rods.
The other compounds were tested in the same manner as above. The test was carried out in soundproof compartments. Student's t-test was resorted to for statistical treatment.

Male ICR mice = assay: Inhibitory effect on hyperlocomotion induced by administration of methylphenidate
Description: Inhibitory effect on hyperlocomotion induced by administration of methylphenidate
Male ICR mice (weighing 24 to 30 g) were divided into groups, each including 10 mice. To one group of mice were subcutaneously given 10 mg/kg of methylphenidate and 0.1 ml/10 g of a saline solution of a specified amount of a test compound and 1 mM of sodium hydrogencarbonate. One hour after the administration, the test animals were checked for hyperlocomotion, which was measured with use of a device for measuring locomotion of small animals (wherein the motion of an animal shifts the center of graavity of the device to actuate a microswitch for the measurement of the amount of motion, see Folia Pharmacologica Japonica, 74, 629-639 (1978). For a control group, the same procedure as above was repeated except that the saline solution given was free from any test compound. The concentration of the test compound at which the result achieved by the group of animals was 50, namely, ED50 value, was determined, with the measurement obtained by the control group calculated as 100. The other compounds were tested in the same manner as above.

male Wister rats = assay: Effect on the fixed ratio (FR20) responding in rats; details: s.c., 15 min before 20 min session, dose giving count 50 with control as 100
Description: Effect on the fixed ratio responding in rats
The test was conducted according to the method described in Ahlenius S. and Engel J., Eur. J. Pharm., Vol. 15, 187-192 (1971).
Male Wister rats (weighing 240 to 320 g) were placed into Skinner box (product of Bil-Medika Co., Ltd., Japan, adapted to give a feed when a lever within the box is pressed) and made to learn how to take the food. In this test, one feed was given to the rats when the lever was pressed 20 times, i.e., fixed ratio (FR) 20. The rats showing stable FR20 response were divided into groups each including four rats.
Physiological saline (containing 1 mM of sodium hydrogencarbonate) containing a specified amount of a test compound was subcutaneously given to the rats of one group in a volume of 0.1 ml/100 g. (Physiological saline containing the above-mentioned amount of sodium hydrogencarbonate only was given to the control group). Fifteen minutes after the administration, the test animals were placed in the Skinner box, and the number of times the animals took the feed for 20 minutes was counted. The dose at which the count gained by the group of animals was 50, namely, ED50 value, was determined, with the count gained by the control group calculated as 100. The same procedure as above was repeated with use of the other test compounds.

Compound	Average: Mean ± S.E. (total of 7 scores), climbing behavior (Male ddy mice; 0.1 mg/kg s.c.)	Average: Mean ± S.E. (total of 7 scores), climbing behavior (Male ddy mice; 0.3 mg/kg s.c.)	Average: Mean ± S.E. (total of 7 scores), climbing behavior (Male ddy mice; 1.0 mg/kg s.c.)	Inhibitory effect on methylphenidate-induced hyperlocomotion (in words) (Male ICR mice; s.c.)	ED50, inhibition of methylphenidate-induced hyperlocomotion (Male ICR mice; s.c. with methylphenidate 10 mg/kg s.c., measured 1 hour after, 50 with control as 100)	ED50, inhibition of FR20 responding (male Wister rats)
CSCC[C@H](NC(=O)[C@H](Cc1ccc(OS(=O)(=O)O)cc1)NC(=O)CCC(=O)O)C(=O)NCC(=O)N[C@@H](Cc1c[nH]c2ccccc12)C(=O)N[C@@H](CCSC)C(=O)N[C@@H](CC(=O)O)C(=O)N(C)[C@@H](Cc1ccccc1)C(N)=O [Peptide C, Suc--Tyr(SO3 H)--Met--Gly--Trp--Met--Asp--MePhe--NH2] (HELM PEPTIDE1{[O=C(O)CCC(=O)[*:2]].[O=C([C@H](Cc1ccc(OS(=O)(=O)O)cc1)N[*:1])[*:2]].M.G.W.M.D.[meF].[am]}$$$$V2.0)	8.5 ± 1.0	6.6 ± 1.1	5.2 ± 1.0	especially high inhibitory effect	0.0447 mg/kg	0.0024 mg/kg
CSCC[C@H](NC(=O)[C@H](Cc1ccc(OS(=O)(=O)O)cc1)NC(=O)c1ccccc1C(=O)O)C(=O)NCC(=O)N[C@@H](Cc1c[nH]c2ccccc12)C(=O)N[C@@H](CCSC)C(=O)N[C@@H](CC(=O)O)C(=O)N[C@@H](Cc1ccccc1)C(N)=O [Peptide F, Pht--Tyr(SO3 H)--Met--Gly--Trp--Met--Asp--Phe--NH2] (HELM PEPTIDE1{[O=C(O)c1ccccc1C(=O)[*:2]].[O=C([C@H](Cc1ccc(OS(=O)(=O)O)cc1)N[*:1])[*:2]].M.G.W.M.D.F.[am]}$$$$V2.0)	7.7 ± 0.6	8.0 ± 0.8	6.8 ± 0.8			0.0167 mg/kg
